# PubChem BioAssay AID1347075 (National Center for Advancing Translational Sciences (NCATS), 2019)
# In all, about 400,000 compounds went through this assay and about 5,500 (1.4%) were called active. The shares of active, inactive and inconclusive entries below differ from those in the screen. Calls follow the shape of the dose curve; as a rule, active = well fitted cell-killing curve with a large enough effect; inconclusive = small, poorly fitted or top-dose-only effect, or effect the other way; inactive = flat fitted curve, though single readings scatter. Where the call is inconclusive, the potency comes from a doubtful curve fit.
# Assay: qHTS assay for MDR1-selective chemotherapeutics: Primary screen using the parental adenocarcinoma cell KB-3-1; also: nearly all actives have a fitted effect of over 60% in size
# Details: KB-3-1 viability, CellTiter-Glo ATP luminescence, 72 h; activity change, negative = cytotoxic: at 46.1 µM (top of the series)
# In short: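 Multi-concentration cytotoxicity screen in KB-3-1 cells grown in DMEM lacking phenol red with 10% FBS. After 72 h at 37 °C with compound, ATP-dependent luminescence was recorded.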
# % is scaled to controls: 0 for no effect and ±100 for the full control effect; potency is read from the fitted curve at half-maximal effect.
SMILES,Potency,"activity change, negative = cytotoxic"
COC(=O)c1ccccc1NC(=O)c1cn(-c2ccc(C)c(C)c2)c(=O)c2ccccc12,"inconclusive: 29.1 µM [cytotoxic, partial curve, poor fit]",
N#Cc1ccccc1Cn1c(=O)n(Cc2ccc(C(=O)NC3CCN(Cc4ccccc4)CC3)cc2)c(=O)c2ccccc21,,inactive: 6.68%
CC(C)(C)c1ccc(C(=O)C2CCCN(C(=O)c3ccccn3)C2)cc1 (stereo unspecified),"inconclusive: 18.4 µM [cytotoxic, single point]",
CN(C)C(=O)COc1ccc(C(=O)/C=C/c2cccnc2)cc1,"inconclusive: 29.1 µM [cytotoxic, single point]",
Cc1ccc(OCCNC(=O)/C=C/c2ccccc2)cc1,"inconclusive: 29.1 µM [rising, single point]",
COc1ccc(OCc2cccc(C(=O)Nc3ccc(CN4CCCCC4)cc3)c2)cc1,"inconclusive: 18.4 µM [cytotoxic, single point]",
CCNC(=O)c1ccc2nc(Cc3ccccc3)oc2c1,,inactive: 4.49%
CCc1cc2c(NCc3ccco3)ncnc2s1,active: 11.6 µM,
CCOC(=O)c1c(NC(=O)COc2cccc(C(F)(F)F)c2)sc2c1CCCCC2,"inconclusive: 10.3 µM [rising, partial curve, poor fit]",
O=C(CCNC(=O)c1ccco1)Nc1ccc(F)c(Cl)c1,,inactive: 5.85%
COc1ccccc1NS(=O)(=O)c1cccc(C(=O)N2CCCC2)c1,,inactive: 12.5%
CCNc1nc(NCC)nc(N/N=C/c2ccc(Br)cc2)n1,,inactive: -17.9%
S=c1[nH]cnc2scc(-c3ccc(Br)cc3)c12,"inconclusive: 20.6 µM [cytotoxic, single point]",
Cc1ccc(S(=O)(=O)CCC(=O)Nc2nnc(CC(C)C)s2)cc1,"inconclusive: 20.6 µM [cytotoxic, single point]",
C[C@H](CO)N1C[C@H](C)[C@@H](CN(C)Cc2ccc(Cl)c(Cl)c2)Oc2c(NC(=O)C3CC3)cccc2C1=O,"inconclusive: 29.1 µM [cytotoxic, partial curve, poor fit]",
C/C=C/Cn1c(SCCCc2ccccc2)nc2c1c(=O)[nH]c(=O)n2C,"inconclusive: 20.6 µM [cytotoxic, single point]",
O=C(CCC(=O)NC1CCCCCCC1)Nc1nnc(C(F)(F)F)s1,,inactive: 11.3%
CCN(c1cccc2ccccc12)S(=O)(=O)c1ccc(Cl)nc1,"inconclusive: 29.1 µM [cytotoxic, single point]",
CCc1ccc(-c2nc(-c3cc4ccccc4oc3=O)sc2C)cc1,,inactive: -3.38%
CCn1c2ccccc2c2nnc(SCC(=O)Nc3ncccn3)nc21,"inconclusive: 10.3 µM [rising, partial curve]",
Clc1cccc(-c2nc(NCc3cccnc3)c3ccccc3n2)c1,,inactive: -2.53%
CCC(c1nnnn1-c1ccc2c(c1)OCCO2)N1CCN(c2ccc(C(F)(F)F)cn2)CC1 (stereo unspecified),"inconclusive: 18.4 µM [cytotoxic, single point]",
CCOC(=O)c1c(NC(=O)/C=C/C(=O)O)sc(C)c1-c1ccc(C)c(C)c1,,inactive: -13.2%

# Given tab-delimited: entries from further up
SMILES	Potency	activity change, negative = cytotoxic
O=C(CCNC(=O)c1ccco1)Nc1ccc(F)c(Cl)c1		inactive: 5.85%
CCC(c1nnnn1-c1ccc2c(c1)OCCO2)N1CCN(c2ccc(C(F)(F)F)cn2)CC1 (stereo unspecified)	inconclusive: 18.4 µM [cytotoxic, single point]	

# Following part.

SMILES,Potency,"activity change, negative = cytotoxic"
CCOc1cc(CN2CCN(c3ccc(C(C)=O)cc3)CC2)ccc1OC,,inactive: -6.64%
c1cc2c(cn1)cnc1cscc12,"inconclusive: 8.2 µM [cytotoxic, partial curve, poor fit]",
C=CCN(c1ccccc1)S(=O)(=O)c1cccc(C(=O)Nc2nnc(SCC)s2)c1,"inconclusive: 16.4 µM [rising, partial curve, poor fit]",
O=C(Nc1nnc(-c2cccnc2)o1)c1cccc(Cl)c1,"inconclusive: 10.3 µM [cytotoxic, partial curve, poor fit]",
Cn1c(=O)c2c(nc(NCCNC(=O)c3ccco3)n2Cc2ccccc2)n(C)c1=O,,inactive: -13.9%
O=C(NCCC1=CCCCC1)c1ccc2c(c1)N(Cc1ccccc1F)C(=O)c1ccccc1S2(=O)=O,,inactive: 4.55%
CCc1nc2ccc(C(=O)Nc3ccc4c(c3)OCC(=O)N4)cn2c1N(CC)CCOC,"inconclusive: 2.59 µM [rising, full curve, poor fit]",
CNC(=S)Nc1ccc(C(N)=O)cc1,,inactive: 14.2%
COc1cccc(-n2nnc3c(=O)n(CC(=O)N4CCC(Cc5ccccc5)CC4)cnc32)c1,"inconclusive: 16.4 µM [cytotoxic, single point]",
Cc1nc(-c2cccnc2)sc1C(=O)Nc1cccc(C(F)(F)F)c1,,inactive: 9.26%
COc1ccc(OCC(=O)NC2CCCCCCC2)cc1,,inactive: 2.13%
N#Cc1ccc(C(=O)Nc2nnc(-c3cccs3)o2)cc1,"inconclusive: 23.1 µM [cytotoxic, partial curve, poor fit]",
CCCCn1c(SCC(=O)NC2CC2)nc2ccccc2c1=O,,inactive: 6.2%
NNC(=O)c1ccc([N+](=O)[O-])c(CS(=O)(=O)c2ccc(Cl)cc2)c1,,inactive: -7.76%
Cc1ccc(S(=O)(=O)c2nc(-c3ccco3)oc2SCc2ccccc2Cl)cc1,"inconclusive: 0.206 µM [cytotoxic, partial curve, poor fit]",
Nc1ccccc1Sc1nc2ccccc2[nH]1,"inconclusive: 18.4 µM [cytotoxic, single point]",
CCN1c2cc(C)ccc2-n2cccc2C12CCN(C(=O)Nc1cc(OC)c(OC)c(OC)c1)CC2,"inconclusive: 20.6 µM [cytotoxic, single point]",
O=C(NCc1ccccc1)C1=C[C@@H](c2csc3ccccc23)C[C@@H](OCCCCO)O1,active: 5.8 µM,
CC(C)N(Cc1nnc(-c2ccccc2Br)o1)C(=O)c1cc(Cl)nc2ccccc12,"inconclusive: 29.1 µM [cytotoxic, single point]",
Cc1c(Nc2cc(Cl)c3nonc3c2[N+](=O)[O-])c(=O)n(-c2ccccc2)n1C,"inconclusive: 14.6 µM [cytotoxic, partial curve, poor fit]",
COc1cccc(C(=O)NNC(=O)C(=O)Nc2ccc(OC)cc2OC)c1,"inconclusive: 29.1 µM [rising, single point]",
Cc1cc(F)ccc1NC(=O)c1cccnc1,,inactive: 15.9%
CC(=O)CSc1ccc(-c2nc3ccccc3[nH]2)cn1,"inconclusive: 23.1 µM [cytotoxic, single point]",
